Results deposited as PubChem BioAssay AID652243 (Drosophila RNAi Screening Center, 2013)

Aim: 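Knock-downs that decrease or increase androgen receptor reporter signal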 (primary screen)
Cells: Drosophila S2R+ cells
Reagent: long dsRNA against Drosophila genes
Duration: 72 h (48 h, then 24 h hormone)
Conditions: synthetic androgen R1881 at 10 nM for 24 h
Read-out: 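Per-well raw luminescence of the androgen-driven firefly reporter and of the Renilla control, two replicates each, without normalisation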
Scale: firefly reporter light: higher = more light from androgen-responsive reporter; Renilla control light: higher = more constitutive control signal (cell number, transfection)
Active means: 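Across duplicate plates, a knock-down whose log firefly/Renilla ratio shifted a set fold down or up from the GFP/LacZ control mean was a hit; the downward cut appears as both 1.5 and 3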
Meaning of the calls: active = hit: reporter lowered or raised; inactive = no hit
In all, the deposit lists about 24,000 reagents; this is an unselected part of those that have a named target and a result. In the full data, 246 (1%) got an active call. 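Plates not normalised; calls are printed but the firefly/Renilla ratio behind them is not deposited; fold cut for lowering reported inconsistently.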 The raw values are shown without normalisation. Reagents against one gene are numbered here. Not stated in the record: the amount of reagent.

For Septin2, how do the results read?
firefly reporter light, replicate 1: 59385; firefly reporter light, replicate 2: 54757; Renilla control light, replicate 1: 4.71e5; Renilla control light, replicate 2: 6.06e5; activity call: inactive

With rdhB, how do the results read?
firefly reporter light, replicate 1: 94410; firefly reporter light, replicate 2: 1.33e5; Renilla control light, replicate 1: 6.83e5; Renilla control light, replicate 2: 6.64e5; activity call: inactive

What is on record for Ggt-1 #1?
firefly reporter light, replicate 1: 1.17e5; firefly reporter light, replicate 2: 1.45e5; Renilla control light, replicate 1: 9.93e5; Renilla control light, replicate 2: 8.95e5; activity call: inactive

For Ggt-1 #2, how do the results read?
firefly reporter light, replicate 1: 3.15e5; firefly reporter light, replicate 2: 3.52e5; Renilla control light, replicate 1: 4.83e5; Renilla control light, replicate 2: 5.38e5; activity call: inactive

What is on record for DopEcR?
firefly reporter light, replicate 1: 6.97e5; firefly reporter light, replicate 2: 4.03e5; Renilla control light, replicate 1: 7.94e5; Renilla control light, replicate 2: 5.38e5; activity call: inactive

What did the screen give for chif?
firefly reporter light, replicate 1: 1.07e6; firefly reporter light, replicate 2: 1.10e6; Renilla control light, replicate 1: 1.54e6; Renilla control light, replicate 2: 1.79e6; activity call: inactive

With Galphao #1, what does the deposit list?
firefly reporter light, replicate 1: 1.14e6; firefly reporter light, replicate 2: 1.07e6; Renilla control light, replicate 1: 2.51e6; Renilla control light, replicate 2: 2.54e6; activity call: inactive

For Galphao #2, how do the results read?
firefly reporter light, replicate 1: 5.04e5; firefly reporter light, replicate 2: 4.60e5; Renilla control light, replicate 1: 1.47e6; Renilla control light, replicate 2: 1.26e6; activity call: inactive

With qkr54B #1, how do the results read?
firefly reporter light, replicate 1: 1.26e5; firefly reporter light, replicate 2: 1.18e5; Renilla control light, replicate 1: 1.83e6; Renilla control light, replicate 2: 1.83e6; activity call: inactive

For qkr54B #2, how do the results read?
firefly reporter light, replicate 1: 6.71e5; firefly reporter light, replicate 2: 5.63e5; Renilla control light, replicate 1: 5.57e5; Renilla control light, replicate 2: 5.90e5; activity call: inactive

With mino, what was measured?
firefly reporter light, replicate 1: 43857; firefly reporter light, replicate 2: 44861; Renilla control light, replicate 1: 3.79e5; Renilla control light, replicate 2: 5.11e5; activity call: inactive

With Cht5 #1, how do the results read?
firefly reporter light, replicate 1: 5.62e5; firefly reporter light, replicate 2: 5.13e5; Renilla control light, replicate 1: 1.61e6; Renilla control light, replicate 2: 1.59e6; activity call: inactive

For Cht5 #2, what does the deposit list?
firefly reporter light, replicate 1: 4.07e5; firefly reporter light, replicate 2: 4.22e5; Renilla control light, replicate 1: 7.83e5; Renilla control light, replicate 2: 8.63e5; activity call: inactive

For CG8272, how do the results read?
firefly reporter light, replicate 1: 6.51e5; firefly reporter light, replicate 2: 3.69e5; Renilla control light, replicate 1: 7.53e5; Renilla control light, replicate 2: 7.20e5; activity call: inactive

How did the screen score CHOp24?
firefly reporter light, replicate 1: 80780; firefly reporter light, replicate 2: 90266; Renilla control light, replicate 1: 9.03e5; Renilla control light, replicate 2: 7.22e5; activity call: inactive

For Tab2, what was measured?
firefly reporter light, replicate 1: 1.01e5; firefly reporter light, replicate 2: 68461; Renilla control light, replicate 1: 1.38e6; Renilla control light, replicate 2: 1.21e6; activity call: inactive

Which result is listed for CG32104 #1?
firefly reporter light, replicate 1: 3.21e5; firefly reporter light, replicate 2: 2.94e5; Renilla control light, replicate 1: 2.61e6; Renilla control light, replicate 2: 2.81e6; activity call: inactive

For CG32104 #2, what does the deposit list?
firefly reporter light, replicate 1: 3.27e5; firefly reporter light, replicate 2: 2.81e5; Renilla control light, replicate 1: 2.65e6; Renilla control light, replicate 2: 2.81e6; activity call: inactive

Which result is listed for 18w #1?
firefly reporter light, replicate 1: 8.28e5; firefly reporter light, replicate 2: 6.07e5; Renilla control light, replicate 1: 1.94e6; Renilla control light, replicate 2: 1.23e6; activity call: inactive

For 18w #2, what was measured?
firefly reporter light, replicate 1: 4.15e5; firefly reporter light, replicate 2: 2.84e5; Renilla control light, replicate 1: 1.22e6; Renilla control light, replicate 2: 9.60e5; activity call: inactive

With CG11619, what does the deposit list?
firefly reporter light, replicate 1: 3.19e5; firefly reporter light, replicate 2: 1.99e5; Renilla control light, replicate 1: 2.42e6; Renilla control light, replicate 2: 2.50e6; activity call: inactive

With PGRP-LA #1, what was measured?
firefly reporter light, replicate 1: 2.89e5; firefly reporter light, replicate 2: 2.22e5; Renilla control light, replicate 1: 2.45e6; Renilla control light, replicate 2: 2.22e6; activity call: inactive

What is on record for PGRP-LA #2?
firefly reporter light, replicate 1: 2.63e5; firefly reporter light, replicate 2: 2.04e5; Renilla control light, replicate 1: 3.31e6; Renilla control light, replicate 2: 2.07e6; activity call: inactive

What is on record for tHMG1?
firefly reporter light, replicate 1: 3.51e5; firefly reporter light, replicate 2: 4.59e5; Renilla control light, replicate 1: 3.18e6; Renilla control light, replicate 2: 3.43e6; activity call: inactive

For p #1, what does the deposit list?
firefly reporter light, replicate 1: 90574; firefly reporter light, replicate 2: 63006; Renilla control light, replicate 1: 2.53e6; Renilla control light, replicate 2: 1.39e6; activity call: inactive

For p #2, how do the results read?
firefly reporter light, replicate 1: 8.33e5; firefly reporter light, replicate 2: 5.33e5; Renilla control light, replicate 1: 2.42e6; Renilla control light, replicate 2: 1.54e6; activity call: inactive

How did the screen score CG17959 #1?
firefly reporter light, replicate 1: 1.91e5; firefly reporter light, replicate 2: 2.18e5; Renilla control light, replicate 1: 2.02e6; Renilla control light, replicate 2: 2.97e6; activity call: inactive

With CG17959 #2, what was measured?
firefly reporter light, replicate 1: 8.64e5; firefly reporter light, replicate 2: 7.35e5; Renilla control light, replicate 1: 1.75e6; Renilla control light, replicate 2: 1.44e6; activity call: inactive

Only “firefly reporter light, replicate 2” (2 entries from above):
Cht5 #2	4.22e5
CG8272	3.69e5
